Measurements from paper PMC12582974.

Chains of the proteins cited; added tags and fusions are not shown.
UniProt Q8N122: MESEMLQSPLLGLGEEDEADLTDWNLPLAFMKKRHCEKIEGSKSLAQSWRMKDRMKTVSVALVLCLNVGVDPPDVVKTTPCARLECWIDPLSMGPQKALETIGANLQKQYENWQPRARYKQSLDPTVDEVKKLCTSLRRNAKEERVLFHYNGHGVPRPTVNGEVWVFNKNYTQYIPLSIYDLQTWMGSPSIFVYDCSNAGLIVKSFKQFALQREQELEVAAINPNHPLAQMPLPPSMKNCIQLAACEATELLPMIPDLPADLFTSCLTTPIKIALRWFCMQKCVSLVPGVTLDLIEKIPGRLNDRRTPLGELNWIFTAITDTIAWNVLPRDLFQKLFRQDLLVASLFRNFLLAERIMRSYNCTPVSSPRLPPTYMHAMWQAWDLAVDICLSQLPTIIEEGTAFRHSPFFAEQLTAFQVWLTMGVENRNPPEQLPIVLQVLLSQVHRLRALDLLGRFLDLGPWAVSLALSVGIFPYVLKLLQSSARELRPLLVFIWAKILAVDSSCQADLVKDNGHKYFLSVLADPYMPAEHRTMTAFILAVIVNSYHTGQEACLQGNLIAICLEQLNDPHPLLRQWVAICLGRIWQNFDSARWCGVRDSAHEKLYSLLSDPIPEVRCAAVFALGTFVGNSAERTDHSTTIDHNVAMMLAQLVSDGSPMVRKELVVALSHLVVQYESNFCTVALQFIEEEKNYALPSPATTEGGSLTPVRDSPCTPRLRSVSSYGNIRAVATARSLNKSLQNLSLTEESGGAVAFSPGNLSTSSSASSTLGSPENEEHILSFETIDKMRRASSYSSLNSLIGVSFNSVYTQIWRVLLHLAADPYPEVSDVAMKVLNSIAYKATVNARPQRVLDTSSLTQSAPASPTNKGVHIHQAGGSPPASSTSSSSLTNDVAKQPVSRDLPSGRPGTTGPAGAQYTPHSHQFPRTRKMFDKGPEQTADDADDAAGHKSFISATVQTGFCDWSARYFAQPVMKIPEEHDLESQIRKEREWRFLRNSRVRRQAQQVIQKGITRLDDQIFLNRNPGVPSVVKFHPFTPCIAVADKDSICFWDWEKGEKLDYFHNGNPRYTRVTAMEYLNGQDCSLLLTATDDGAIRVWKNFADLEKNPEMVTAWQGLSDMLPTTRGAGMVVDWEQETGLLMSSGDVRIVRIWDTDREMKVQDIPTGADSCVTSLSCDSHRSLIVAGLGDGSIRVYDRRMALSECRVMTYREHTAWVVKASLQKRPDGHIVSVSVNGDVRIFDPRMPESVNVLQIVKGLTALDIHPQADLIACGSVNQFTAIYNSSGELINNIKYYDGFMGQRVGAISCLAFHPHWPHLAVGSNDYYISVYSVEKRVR
UniProt Q9Y265: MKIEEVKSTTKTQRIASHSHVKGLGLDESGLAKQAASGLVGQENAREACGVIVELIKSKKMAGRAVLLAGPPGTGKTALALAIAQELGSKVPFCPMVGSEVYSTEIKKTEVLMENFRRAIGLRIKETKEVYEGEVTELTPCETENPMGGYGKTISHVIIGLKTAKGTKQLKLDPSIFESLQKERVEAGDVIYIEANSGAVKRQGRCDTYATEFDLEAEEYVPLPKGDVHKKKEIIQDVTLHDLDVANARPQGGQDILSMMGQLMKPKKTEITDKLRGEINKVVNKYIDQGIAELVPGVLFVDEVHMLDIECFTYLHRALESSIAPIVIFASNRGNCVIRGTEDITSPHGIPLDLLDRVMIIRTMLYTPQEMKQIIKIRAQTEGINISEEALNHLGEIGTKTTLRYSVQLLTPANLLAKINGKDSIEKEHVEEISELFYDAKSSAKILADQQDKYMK
UniProt Q9Y4R8: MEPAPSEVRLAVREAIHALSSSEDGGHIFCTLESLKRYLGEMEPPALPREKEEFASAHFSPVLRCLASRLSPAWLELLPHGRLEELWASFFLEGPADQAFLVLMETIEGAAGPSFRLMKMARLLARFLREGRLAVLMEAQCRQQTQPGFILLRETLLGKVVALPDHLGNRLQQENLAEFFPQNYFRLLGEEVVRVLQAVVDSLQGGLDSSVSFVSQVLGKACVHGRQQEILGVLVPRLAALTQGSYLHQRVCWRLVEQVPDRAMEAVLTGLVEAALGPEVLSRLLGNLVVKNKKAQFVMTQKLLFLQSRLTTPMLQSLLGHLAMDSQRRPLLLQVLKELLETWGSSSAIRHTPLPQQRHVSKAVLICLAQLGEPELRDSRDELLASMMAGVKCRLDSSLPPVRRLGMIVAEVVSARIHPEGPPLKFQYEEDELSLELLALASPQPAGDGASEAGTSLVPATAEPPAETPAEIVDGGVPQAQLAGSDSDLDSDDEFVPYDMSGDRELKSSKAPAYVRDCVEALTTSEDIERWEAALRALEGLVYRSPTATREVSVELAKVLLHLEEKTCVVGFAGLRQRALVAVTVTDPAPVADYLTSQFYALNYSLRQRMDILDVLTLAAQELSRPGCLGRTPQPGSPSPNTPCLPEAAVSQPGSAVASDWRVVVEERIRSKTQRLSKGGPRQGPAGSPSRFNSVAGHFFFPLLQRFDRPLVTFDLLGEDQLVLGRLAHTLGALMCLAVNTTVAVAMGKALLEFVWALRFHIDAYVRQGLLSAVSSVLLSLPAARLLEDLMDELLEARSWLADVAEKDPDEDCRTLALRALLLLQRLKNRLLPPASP

molecular target: T1, endogenous WAC (human (endogenous in HEK293T)) (UniProt Q9BTA9); assay: affinity purification with mass spectrometry; endogenous WAC immunoprecipitated with a WAC antibody from HEK293T lysate; interactors identified by mass spectrometry
T1 sequence: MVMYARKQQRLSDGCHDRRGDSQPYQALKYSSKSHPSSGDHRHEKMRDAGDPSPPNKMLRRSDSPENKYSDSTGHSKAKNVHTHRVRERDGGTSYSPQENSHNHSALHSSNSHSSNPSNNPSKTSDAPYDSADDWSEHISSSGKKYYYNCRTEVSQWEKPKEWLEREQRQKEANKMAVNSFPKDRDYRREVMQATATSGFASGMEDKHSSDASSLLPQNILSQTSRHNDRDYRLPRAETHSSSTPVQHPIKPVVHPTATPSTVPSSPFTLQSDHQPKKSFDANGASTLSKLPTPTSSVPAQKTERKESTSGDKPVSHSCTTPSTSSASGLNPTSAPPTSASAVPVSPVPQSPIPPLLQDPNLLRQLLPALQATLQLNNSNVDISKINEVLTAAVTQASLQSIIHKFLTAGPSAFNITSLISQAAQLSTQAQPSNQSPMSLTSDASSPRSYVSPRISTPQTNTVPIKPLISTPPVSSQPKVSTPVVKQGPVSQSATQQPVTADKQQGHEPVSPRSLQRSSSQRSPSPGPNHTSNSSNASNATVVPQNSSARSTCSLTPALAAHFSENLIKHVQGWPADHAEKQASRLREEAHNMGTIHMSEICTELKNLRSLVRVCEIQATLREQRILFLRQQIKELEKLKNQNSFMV

binding, binds:
endogenous RAPTOR (from UniProt Q8N122 1-1335), endogenous RUVBL1 (from UniProt Q9Y265 1-456), endogenous TELO2 (from UniProt Q9Y4R8 1-837)

No constants are given. Whether binding was seen depends on the method and setting. In cells and extracts the contact can be indirect. Here binding means that the protein was enriched with, or labelled near, the bait; the list need not be complete.
